We go through 47 molecules from the supplement of paper PMC9226226.

Several values for one entry are separate records, joined by “and”; a condition that tells them apart may be missing. Identical values can stand only once. Some of the results follow. Some well-known active drugs show little effect in this data set, so a weak value is uncertain.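 Human mesenchymal stem cells lacking the Werner syndrome gene, which age prematurely, were used. Automated live-cell imaging tracked growth across three biological repeats; the twenty drugs raising growth most relative to vehicle advanced, without a stated fixed cutoff.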

For the assay, the system named is Werner syndrome hMSCs (WRN-/-). Nature of the assay: relative cell density (fold change vs vehicle control); higher = more proliferation (geroprotective). Particulars: concentration (umol/L): 1, 6 days.

The molecule `CCc1oc2ccccc2c1C(=O)c1cc(Br)c(O)c(Br)c1` gave a relative cell density (vehicle: DMSO) of 0.98.

Regarding `NCc1ccc(S(N)(=O)=O)cc1`, the relative cell density (vehicle: DMSO) was 0.995 and 1.18.

In the case of `CN[C@@H]1[C@H](O[C@H]2[C@H](O[C@H]3[C@H](O)[C@@H](O)[C@H](NC(=N)N)[C@@H](O)[C@@H]3NC(=N)N)O[C@@H](C)[C@]2(O)CO)O[C@@H](CO)[C@H](O)[C@H]1O`, the relative cell density (vehicle: Water) came to 0.909.

`CC(C)(C)NCC(O)c1cc(O)cc(O)c1` (stereo not drawn) showed a relative cell density (vehicle: Water) of 0.742.

Under “vehicle: DMSO”, `CCOC(=O)[N-]c1c[n+](N2CCOCC2)no1` gave a relative cell density of 1.19.

In the case of `CC[N+](CC)(CC)CCOc1cccc(OCC[N+](CC)(CC)CC)c1OCC[N+](CC)(CC)CC`, the relative cell density (vehicle: DMSO) came to 1.02.

`C=C(c1ccc(C(=O)O)cc1)c1cc2c(cc1C)C(C)(C)CCC2(C)C` had a relative cell density (vehicle: DMSO) of 1.27.

The molecule `CC(C(=O)O)c1ccc(C(=O)c2cccs2)cc1` (stereo not drawn) returned a relative cell density (vehicle: DMSO) of 0.985.

`COc1cc2ncnc(Nc3ccc(F)c(Cl)c3)c2cc1OCCCN1CCOCC1` came in with a relative cell density (vehicle: DMSO) of 0.992.

Consider `CN1CCN(c2nc(C3=C(c4c[nH]c5ccccc45)C(=O)NC3=O)c3ccccc3n2)CC1`, for which the relative cell density (vehicle: DMSO) came to 0.997.

In turn, `CN1CCC[C@@H]1CCO[C@](C)(c1ccccc1)c1ccc(Cl)cc1` gave a relative cell density (vehicle: DMSO) of 1.1.

`CCOc1ccc(NC(C)=O)cc1` yielded a relative cell density (vehicle: DMSO) of 1.14.

For the setting “vehicle: DMSO”, `CC(C)[C@H](N)C(=O)OCC(CO)OCn1cnc2c(=O)[nH]c(N)nc21` (stereo partly drawn) gave a relative cell density of 0.914.

Regarding `O=C(O)c1ccccc1`, the relative cell density (vehicle: DMSO) turned out to be 0.962.

As for `CC[C@@H]([C@H](C)O)n1ncn(-c2ccc(N3CCN(c4ccc(OC[C@@H]5CO[C@@](Cn6cncn6)(c6ccc(F)cc6F)C5)cc4)CC3)cc2)c1=O`, for the setting “vehicle: DMSO”, the relative cell density was determined as 0.797.

Turning to `COC(=O)[C@]12CCC(C)(C)C[C@H]1[C@H]1C(=O)C=C3[C@@]4(C)C=C(C#N)C(=O)C(C)(C)[C@@H]4CC[C@@]3(C)[C@]1(C)CC2`, the relative cell density (vehicle: DMSO) came to 0.186.

In turn, `CCCCC[C@H](O)/C=C/[C@H]1[C@H](O)CC(=O)[C@@H]1CCCCCCC(=O)O` came in with a relative cell density (vehicle: DMSO) of 0.98.

Regarding `CC(C)Cc1ccc(C(C)C(=O)O)cc1` (stereo not drawn), the relative cell density is 1.11 (vehicle: DMSO) and 0.938 (vehicle: Water).

In the case of `COc1ccc(CN2CCN(C(c3ccc(F)cc3)c3ccc(F)cc3)CC2)c(OC)c1OC`, the relative cell density (vehicle: DMSO) stood at 1.14.

As to `CCc1ccc(C(=O)C(C)CN2CCCCC2)cc1` (stereo not drawn), for the setting “vehicle: DMSO”, the relative cell density was found to be 1.03.

Consider `Nc1ccc(S(=O)(=O)Nc2cncc(Cl)n2)cc1`, for which, where the note is “vehicle: DMSO”, the relative cell density worked out at 1.34.

With `Cc1cc(N2CCN([C@@H]3CN[C@H](C(=O)N4CCSC4)C3)CC2)n(-c2ccccc2)n1`, the relative cell density (vehicle: DMSO) amounted to 1.27.

On to `Nc1nc2[nH]cc(CCc3ccc(C(=O)N[C@@H](CCC(=O)O)C(=O)O)cc3)c2c(=O)[nH]1`, for which, where the note is “vehicle: Water”, the relative cell density is 0.576 and 1.02.

Turning to `COCCc1ccc(OCC(O)CNC(C)C)cc1` (stereo not drawn), the relative cell density (vehicle: DMSO) stood at 0.991.

Where the note is “vehicle: DMSO”, `CCN1CCN(Cc2ccc(Nc3ncc(F)c(-c4cc(F)c5nc(C)n(C(C)C)c5c4)n3)nc2)CC1` displayed a relative cell density of 1.33.

Regarding `COc1ccc(C(=O)c2ccccc2O)c(O)c1`, the relative cell density (vehicle: DMSO) is 1.09.

Take `O=C(O)C1(C(=O)O)CCC1.[NH2-].[NH2-].[Pt+2]`: the relative cell density (vehicle: Water) is 0.741.

Consider `Cc1cnc(C(=O)O)c[n+]1[O-]`, for which the relative cell density (vehicle: DMSO) stood at 0.953.

Under “vehicle: DMSO”, `CCCCNc1ccc(C(=O)OCCN(C)C)cc1` showed a relative cell density of 1.05.

With `CCCCC(=O)N(Cc1ccc(-c2ccccc2-c2nn[nH]n2)cc1)C(C(=O)O)C(C)C.CCOC(=O)C(C)CC(Cc1ccc(-c2ccccc2)cc1)NC(=O)CCC(=O)O` (stereo not drawn), the relative cell density (vehicle: DMSO) worked out at 0.871.

`CCCCCOC(=O)Nc1nc(=O)n([C@@H]2O[C@H](C)[C@@H](O)[C@H]2O)cc1F` returned a relative cell density (vehicle: DMSO) of 1.14.

For `CCN(CC)CCOc1ccc(C(=C(Cl)c2ccccc2)c2ccccc2)cc1`, the relative cell density (vehicle: DMSO) turned out to be 1.21.

In turn, `C=C[C@@H]1C[C@]1(NC(=O)[C@@H]1C[C@@H]2CN1C(=O)[C@H](C(C)(C)C)NC(=O)O[C@@H]1C[C@H]1CCCCCc1nc3ccc(OC)cc3nc1O2)C(=O)NS(=O)(=O)C1CC1` came in with a relative cell density (vehicle: DMSO) of 1.46.

Take `C[C@]1(COc2ccc(N3CCC(Oc4ccc(OC(F)(F)F)cc4)CC3)cc2)Cn2cc([N+](=O)[O-])nc2O1`: the relative cell density (vehicle: DMSO) came out at 1.31.

On to `CN1CCC(=C2c3ccccc3CCc3sccc32)CC1`, for which, where the note is “vehicle: DMSO”, the relative cell density stood at 1.08.

Take `COc1ncc(-c2ccc3nccc(-c4ccnnc4)c3c2)cc1NS(=O)(=O)c1ccc(F)cc1F`: the relative cell density (vehicle: DMSO) came to 0.2.

The molecule `CN1CCOC(c2ccccc2)c2ccccc2C1` (stereo not drawn) registered a relative cell density (vehicle: Water) of 1.04.

As to `O=C1[C@H](CC[C@H](O)c2ccc(F)cc2)[C@@H](c2ccc(O)cc2)N1c1ccc(F)cc1`, the relative cell density (vehicle: DMSO) was found to be 0.919.

Under “vehicle: DMSO”, `O=C(O)COCCN1CCN([C@H](c2ccccc2)c2ccc(Cl)cc2)CC1` yielded a relative cell density of 1.51.

Regarding `Cc1cnc(C(=O)NCCc2ccc(S(=O)(=O)NC(=O)NC3CCCCC3)cc2)cn1`, the relative cell density (vehicle: DMSO) was 1.03.

In the case of `COc1ccc2c(O[C@@H]3C[C@H]4C(=O)N[C@]5(C(=O)NS(=O)(=O)C6CC6)C[C@H]5/C=C\CCCCN(C)C(=O)[C@@H]4C3)cc(-c3nc(C(C)C)cs3)nc2c1C`, where the note is “vehicle: DMSO”, the relative cell density worked out at 1.21.

For `CC(O)(P(=O)(O)O)P(=O)(O)O`, the relative cell density (vehicle: Water) amounted to 1.13.

On to `COC(=O)C1=C(C)NC(C)=C(C(=O)OCC(C)C)C1c1ccccc1[N+](=O)[O-]` (stereo not drawn), for which, under “vehicle: DMSO”, the relative cell density turned out to be 0.867.

For the setting “vehicle: DMSO”, `Oc1cc(O)c(Cl)cn1` registered a relative cell density of 1.24.

For the molecule `CCCC(=O)[O-].[Na+]`, under “vehicle: Water”, the relative cell density was determined as 1.01.

Regarding `COC(=O)C1=C(C)NC(C)=C(C(=O)OCCN(C)Cc2ccccc2)C1c1cccc([N+](=O)[O-])c1` (stereo not drawn), the relative cell density (vehicle: DMSO) was determined as 1.02.

Turning to `OC[C@H]1O[C@@H](c2ccc(Cl)c(Cc3ccc(O[C@H]4CCOC4)cc3)c2)[C@H](O)[C@@H](O)[C@@H]1O`, where the note is “vehicle: DMSO”, the relative cell density was 1.05.
